Results deposited as PubChem BioAssay AID652243 (Drosophila RNAi Screening Center, 2013)
In all, the deposit lists about 24,000 reagents; shown is an unselected part of those with a known target gene and a result. In the full data, 246 (1%) got an active call. 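Plates not normalised; calls are printed but the firefly/Renilla ratio behind them is not deposited; fold cut for lowering reported inconsistently.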 The raw values are shown without normalisation. Not given: the amount of reagent.

Test: 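Knock-downs that decrease or increase androgen receptor reporter signal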 (primary screen)
Cells: Drosophila S2R+ cells
Reagents: long dsRNA against Drosophila genes
Timing: 72 h (48 h, then 24 h hormone)
Conditions: synthetic androgen R1881 at 10 nM for 24 h
Read-out: 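Per-well raw luminescence of the androgen-driven firefly reporter and of the Renilla control, two replicates each, without normalisation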
Scale: firefly reporter light: higher = more light from androgen-responsive reporter; Renilla control light: higher = more constitutive control signal (cell number, transfection)
Rule for the call: 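Hit when the log firefly-to-Renilla ratio dropped or increased by a fixed fold versus the mean of GFP or LacZ controls across duplicate plates; lowering cut given as 1.5 and as 3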
Calls: active = hit: reporter lowered or raised; inactive = no hit

What did the screen give for Lst (Limostatin) [DRSC07146]?
firefly reporter light, replicate 1: 1.43e5; firefly reporter light, replicate 2: 1.67e5; Renilla control light, replicate 1: 2.41e6; Renilla control light, replicate 2: 2.41e6; Outcome: inactive

What is on record for Lst (Limostatin) [DRSC29304]?
firefly reporter light, replicate 1: 2.93e5; firefly reporter light, replicate 2: 4.45e5; Renilla control light, replicate 1: 9.36e5; Renilla control light, replicate 2: 1.03e6; Outcome: inactive

With CG31924 [DRSC00689], what does the deposit list?
firefly reporter light, replicate 1: 1.09e5; firefly reporter light, replicate 2: 1.20e5; Renilla control light, replicate 1: 6.57e5; Renilla control light, replicate 2: 8.65e5; Outcome: inactive

Which result is listed for Faf2 (Fas-associated factor 2) [DRSC03325]?
firefly reporter light, replicate 1: 1.16e6; firefly reporter light, replicate 2: 3.62e5; Renilla control light, replicate 1: 1.41e6; Renilla control light, replicate 2: 8.40e5; Outcome: inactive

With CG14634 [DRSC17944], how do the results read?
firefly reporter light, replicate 1: 4.50e5; firefly reporter light, replicate 2: 3.41e5; Renilla control light, replicate 1: 3.29e6; Renilla control light, replicate 2: 2.60e6; Outcome: inactive

What did the screen give for CG31183 [DRSC14403]?
firefly reporter light, replicate 1: 1.45e5; firefly reporter light, replicate 2: 77561; Renilla control light, replicate 1: 2.45e6; Renilla control light, replicate 2: 2.05e6; Outcome: inactive

With CG31183 [DRSC15554], what does the deposit list?
firefly reporter light, replicate 1: 27964; firefly reporter light, replicate 2: 31191; Renilla control light, replicate 1: 2.64e5; Renilla control light, replicate 2: 3.72e5; Outcome: inactive

Which result is listed for CG31183 [DRSC39297]?
Outcome: inactive

A run of entries from the list above:
CG31183 [DRSC14403] → firefly reporter light, replicate 1 = 1.45e5; firefly reporter light, replicate 2 = 77561; Renilla control light, replicate 1 = 2.45e6; Renilla control light, replicate 2 = 2.05e6; Outcome = inactive
CG31183 [DRSC15554] → firefly reporter light, replicate 1 = 27964; firefly reporter light, replicate 2 = 31191; Renilla control light, replicate 1 = 2.64e5; Renilla control light, replicate 2 = 3.72e5; Outcome = inactive

The listing continues:
With Coop (Corepressor of Pangolin) [DRSC06604], what was measured?
firefly reporter light, replicate 1: 8.27e5; firefly reporter light, replicate 2: 6.37e5; Renilla control light, replicate 1: 2.00e6; Renilla control light, replicate 2: 1.57e6; Outcome: inactive

For Coop (Corepressor of Pangolin) [DRSC25252], what was measured?
firefly reporter light, replicate 1: 6.79e5; firefly reporter light, replicate 2: 4.72e5; Renilla control light, replicate 1: 4.66e5; Renilla control light, replicate 2: 4.37e5; Outcome: inactive

With CG14418 [DRSC23051], what was measured?
firefly reporter light, replicate 1: 9.79e5; firefly reporter light, replicate 2: 1.17e6; Renilla control light, replicate 1: 1.30e6; Renilla control light, replicate 2: 1.40e6; Outcome: inactive

With CG4658 [DRSC02768], what was measured?
firefly reporter light, replicate 1: 91872; firefly reporter light, replicate 2: 1.02e5; Renilla control light, replicate 1: 6.55e5; Renilla control light, replicate 2: 1.01e6; Outcome: inactive
